Reference: PubChem BioAssay AID686943 (Drosophila RNAi Screening Center, 2013)
The screen tested about 23,000 reagents; below is a random part of those with a known target gene and a result. 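Extra replicates exist only for a retested subset of genes; insulin dose and duration not given; both raised and lowered dpERK matter.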 Further read-outs or replicates are left out here. The record does not give: the amount of reagent, the time to read-out.

- Purpose: 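Fly genes whose loss alters ERK activation after insulin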 (primary screen)
- Cell system: Drosophila S2R+ haemocyte-like cells expressing YFP-tagged ERK (Rolled)
- Reagents: long dsRNA against Drosophila genes
- Conditions: insulin stimulation versus unstimulated cells; dose and duration not given
- Detection: 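Antibody staining for doubly phosphorylated ERK divided by ERK-YFP signal, as plate z-scores, in insulin-treated and untreated cells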
- Reading the numbers: replicate 1, z-score of dpERK with insulin: higher = more active ERK per ERK-YFP after insulin

The opening 2 records, to show the layout:
no.	target	amplicon	replicate 1, z-score of dpERK with insulin
1	Past1 (Putative Achaete Scute Target 1)	DRSC16784	-0.32
2	Cubn (Cubilin)	DRSC18256	0.6

Results, from the first entry:
no.	target	amplicon	replicate 1, z-score of dpERK with insulin
1	Past1 (Putative Achaete Scute Target 1)	DRSC16784	-0.32
2	Cubn (Cubilin)	DRSC18256	0.6
3	PheRS-m (Phenylalanyl-tRNA synthetase, mitochondrial)	DRSC05915	0.04
4	ArgRS-m (Arginyl-tRNA synthetase, mitochondrial)	DRSC14186	-0.29
5	CG42258	DRSC19741	0.87
6	CG42258	DRSC19783	-2.01
7	Fancm (Fanconi anemia group M helicase)	DRSC16348	-0.02
8	GlcAT-P (Glucuronyltransferase P)	DRSC10603	0.12
9	GlcAT-P (Glucuronyltransferase P)	DRSC10604	3.72
10	Tbc1d8-9 (TBC1 domain family member 8/9)	DRSC11820	-0.52
11	CG1607	DRSC15130	-0.1
12	wge (winged eye)	DRSC15246	-0.33
13	wge (winged eye)	DRSC15672	0.15
14	sNPF-R (short neuropeptide F receptor)	DRSC10836	-0.01
15	bur (burgundy)	DRSC03163	-0.46
16	AIMP1 (aaRS-interacting multifunctional protein 1)	DRSC07118	0.76
17	Kyat (Kynurenine aminotransferase)	DRSC16147	-0.6
18	muskelin	DRSC07273	-1.01
19	CG8757	DRSC11039	-0.1
20	CG8501	DRSC07198	0.5
21	Boh2 (Buddy of Hmr 2)	DRSC02777	0.52
22	l(3)72Dn (lethal (3) 72Dn)	DRSC10468	-0.23
23	CG18789	DRSC02696	0.8
24	Duox (Dual oxidase)	DRSC00571	-0.23
25	CG14810	DRSC17693	1.24
26	CG14810	DRSC17961	0.86
27	CG30340	DRSC05167	0.26
28	Rsph3 (Radial spoke head protein 3)	DRSC09696	1.08
29	Rsph3 (Radial spoke head protein 3)	DRSC10211	0.14
30	CG43110	DRSC05661	0.28
31	CG18258	DRSC19798	-0.98
32	CG10486	DRSC09735	-1.02
33	CG31419	DRSC15771	-1.03
34	cl (clot)	DRSC02118	0.63
35	CG12581	DRSC12206	-0.09
36	CG12581	DRSC12207	0.49
37	RnrL (Ribonucleoside diphosphate reductase large subunit)	DRSC03413	-1.12
38	Marc (Mitochondrial amidoxime reducing component)	DRSC06614	0.47
39	CG7724	DRSC10905	-0.3
